Structures are written as SMILES. The list shows a part of the results. These are further read-outs of the screen, such as a control signal, another cell line or another target. No call is given for them. Compounds called inactive in the main read-out are mostly missing here. The note in brackets gives the kind of curve behind each potency; many fits are weak.

This test can be described thus: qHTS Assay for Lipid Storage Modulators in Drosophila S3 Cells.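 For cell number change: cells counted by Cell Tracker Red CMTPX staining in the red channel.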 As to conditions: BODIPY lipid droplet fluorescence, 18-24 h; for cell number change: measured here: cell count max response, cells fed with added oleic acid. An outline of the steps:
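Drosophila S3 cells loaded with oleic acid (400 uM, as added) and compounds at several concentrations; lipid droplets imaged by 488-nm laser-scanning cytometry, 500–530 nm intensity and object ratio to cell channel. Percent activity normalized to 20 uM Triacsin C.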
(In general: qHTS replaces the single test concentration by a dilution series.)

Setting [1] is: measured here: cell number channel AC50, cells fed with added oleic acid.
Setting [2] is: measured here: lipid fluorescence (Fed channel) AC50, cells fed with added oleic acid.

As to `CC1(C)CC(=O)C(Br)=C(O)C1`, the cell number change was -46%. The AC50 – broadly, the concentration at which the activity in the assay is half-maximal – under setting [1] is 3.55 µM [falling, partial curve]. Besides, the AC50 under setting [2] is 35.5 µM [falling, single point].
Consider `CN1CCSc2ccc(C(=O)NCc3cccc(Br)c3)cc21`, for which the cell number change was determined as 17.9%.
Consider `Cc1ccnc2nc(C(=O)OCC(=O)N(CC(C)C)CC(C)C)nn12`, for which the cell number change is -47.5%. Under setting [1], the AC50 was 1.03 µM [falling, full curve]. The AC50 under setting [2] is 0.231 µM [falling, full curve].
For `COc1cccc(/C=C2\CCCCC2=O)c1`, the cell number change came to 6.35%. Further, the AC50 under setting [2] was 29.1 µM [rising, single point].
Take `COCCCN(C(=O)C(C)Oc1ccc(Br)cc1)c1c(N)n(Cc2ccccc2)c(=O)[nH]c1=O` (stereo unspecified): the cell number change was found to be 52.2%. Moreover, the AC50 under setting [1] was 29.1 µM [rising, single point].
For the compound `O=C1CSC(c2ccccc2)N1c1ccc(F)cc1F` (stereo unspecified), the cell number change amounted to 3.52%. In addition, under setting [2], the half-maximal activity concentration (AC50) is 4.11 µM [rising, single point].
Regarding `CCOC(=O)N1CCN(CC(=O)Nc2ccc(OC)cc2)CC1`, the cell number change was -35.1%. Also, the half-maximal activity concentration (AC50) under setting [1] was 0.651 µM [falling, full curve]. Besides, the AC50 under setting [2] is 0.00461 µM [falling, full curve, poor fit].
In the case of `Cc1ccc(C(=O)NCC(=O)OCn2nnc3ccccc3c2=O)cc1`, the cell number change amounted to 7.13%. For the same compound, under setting [2], the AC50 was 6.51 µM [rising, single point].
For the compound `CNC(=O)C1CCN(S(=O)(=O)c2c(C)noc2/C=C/c2ccc(C)cc2)CC1`, the cell number change came out at 21.6%.
As for `Oc1cccc(-n2nnnc2SCc2ccccc2F)c1`, the cell number change is -23.7%. Further, the AC50 under setting [2] was 32.6 µM [falling, single point].
On to `CSCC[C@H](NS(=O)(=O)c1ccc(C)cc1)C(=O)N1CCC(C(=O)N[C@@H](Cc2ccccc2)C(=O)O)CC1`, for which the cell number change was found to be 4.21%. Moreover, under setting [2], the concentration at half-maximal activity (AC50) is 5.17 µM [rising, full curve].
Consider `CC1=NN(C(N)=S)C(=O)C1N=Nc1ccccc1` (stereo unspecified), for which the cell number change came out at 17.5%. In addition, the AC50 under setting [1] is 0.0411 µM [rising, full curve, poor fit]. Besides, the AC50 under setting [2] is 0.517 µM [rising, partial curve, poor fit].
In the case of `COc1ccc(-c2nnn(CC#N)n2)cc1OC`, the cell number change was 53.3%. Further, the AC50 under setting [1] was 13 µM [rising, partial curve, poor fit].
On to `Nc1nnc(SCC(=O)Nc2sc3c(c2C(=O)c2ccccc2)CCCC3)s1`, for which the cell number change came out at 1.23%. Moreover, under setting [2], the AC50 was 29.1 µM [falling, single point].
Consider `N#Cc1c(-c2ccccc2)cc(-c2ccccc2)[nH]c1=O`, for which the cell number change came to 23.5%.
For the compound `Cn1cccc1C1Nc2ccccc2NC2=C1C(=O)CC(C)(C)C2` (stereo unspecified), the cell number change was 21.5%. Besides, the AC50 under setting [2] is 0.146 µM [falling, full curve].
In the case of `CC(C)CN(CC(C)C)S(=O)(=O)N1CCC(C(=O)NCCc2ccc(Cl)cc2)CC1`, the cell number change is -3.6%. For the same compound, under setting [1], the AC50 is 5.17 µM [rising, single point].
Consider `COc1cc(/C=N/NC(=O)c2nonc2C)ccc1O`, for which the cell number change was -9.19%. Further, the AC50 under setting [2] is 1.16 µM [falling, partial curve, poor fit].
In the case of `CCOc1ccc2[nH]c3c(NCCOC)ncnc3c2c1`, the cell number change is -23.4%.
Consider `Cc1nc2cc(NC(=O)N3c4ccccc4CC3C)ccc2n1C` (stereo unspecified), for which the cell number change was -6.41%. Under setting [2], the concentration at half-maximal activity (AC50) is 1.3 µM [rising, partial curve].
Turning to `Cc1cc(=O)oc2c3c(cc(OCC(=O)Nc4ccc(CCO)cc4)c12)OC(C)(C)CC3`, the cell number change amounted to 1.36%. Besides, under setting [2], the AC50 is 5.17 µM [falling, full curve].
As for `O=C(N/N=C/c1ccc(Br)o1)c1ccc2c(c1)OCCO2`, the cell number change amounted to 25.6%. Also, the AC50 under setting [2] is 29.1 µM [rising, single point].
Take `NC(=O)c1ccsc1NC(=O)COC(=O)c1ccccc1F`: the cell number change turned out to be 21.2%. Also, the AC50 under setting [2] is 6.51 µM [rising, single point].
With `Oc1ccc(Cl)cc1C=Nc1ccc2c3c(cccc13)CC2`, the cell number change was determined as 1.92%. Also, under setting [1], the AC50 was 1.46 µM [falling, partial curve].
In the case of `C[C@@H]1C[C@H](Nc2ccccc2)c2ccccc2N1C(=O)c1cccnc1`, the AC50 is, setting by setting: under setting [1], 0.58 µM [rising, single point]; under setting [2], 0.58 µM [rising, single point].
For the compound `O=C1C=C(c2ccc(O)cc2)C[C@@H](c2ccc3c(c2)OCO3)C1`, the cell number change is -13.2%. Further, the AC50 under setting [2] was 1.16 µM [rising, single point].
Take `O=C(O)c1ccccc1CSc1ncccc1C(=O)O`: the cell number change was -32%. Further, under setting [1], the concentration at half-maximal activity (AC50) was 11.6 µM [falling, partial curve].
Regarding `C/C(=N\Nc1ccc(S(N)(=O)=O)cc1[N+](=O)[O-])c1cccs1`, the cell number change was -2.63%.
Turning to `CC1CCC(C(C)C)C(OC(=O)COC(=O)c2cccn2C)C1` (stereo unspecified), the cell number change was -27.4%. Also, the AC50 under setting [2] is 29.1 µM [falling, single point].
As to `COc1ccc(/C(C)=N/NC(=O)C2C3CCCCC32)c(OC)c1` (stereo unspecified), the cell number change came to 39.5%. Besides, under setting [1], the AC50 was 16.4 µM [rising, single point]. Also, under setting [2], the AC50 is 14.6 µM [rising, partial curve].
`O=C(CCl)Nc1ccc(Sc2ccc(NC(=O)CCl)cc2)cc1`: the cell number change was -25.8%. In addition, the AC50 under setting [2] is 0.291 µM [falling, full curve].
Consider `O=S(=O)(c1cccc(COc2ccc(Cl)cc2Cl)c1)N1CCOCC1`, for which the cell number change was -10.3%. Under setting [2], the AC50 was 32.6 µM [falling, partial curve, poor fit].
Regarding `CCC1Nc2ncnc(N3CCN(c4ccccc4)CC3)c2N(Cc2ccc(C)cc2)C1=O` (stereo unspecified), the cell number change is -45.1%. In addition, under setting [1], the AC50 was 0.00461 µM [falling, full curve, poor fit]. Besides, the AC50 under setting [2] is 0.00517 µM [falling, full curve, poor fit].
`CCc1ccc2oc(C(=O)NCC(c3ccc(OC)cc3)N3CCCCC3)c(C)c2c1` (stereo unspecified): the cell number change was -2.64%. Besides, the AC50 under setting [2] was 0.13 µM [falling, single point].
As to `Cc1occc1C(=O)Nc1ccccc1C#N`, the cell number change was 0.867%. Besides, under setting [2], the AC50 was 0.58 µM [falling, partial curve, poor fit].
Turning to `COc1cc([N+](=O)[O-])ccc1NC(=O)CC(C)C`, under setting [2], the half-maximal activity concentration (AC50) was 6.51 µM [rising, partial curve, poor fit].
As for `CN(C(=O)CSc1nnc(-c2ccc(C(C)(C)C)cc2)n1C)C1CCS(=O)(=O)C1` (stereo unspecified), the AC50 under setting [2] is 8.2 µM [falling, partial curve].
Turning to `CC(NC(=O)/C(C#N)=C/c1cccs1)c1ccccc1` (stereo unspecified), the cell number change is -0.611%.
For the compound `Cc1cc(NC(=O)C2CCN(S(=O)(=O)c3c(C)noc3C)CC2)ccc1Br`, the cell number change was 3.04%. The AC50 under setting [2] is 0.58 µM [falling, full curve, poor fit].

The record behind these values is PubChem BioAssay AID2685 (National Center for Advancing Translational Sciences (NCATS), 2010).
